Laboratory results reported in paper PMC12670160, “A drug-repurposing screen of FDA- and EMA-approved drugs identifies two NF-κB inhibitors active against eumycetoma” (Journal of Antimicrobial Chemotherapy, 2025).
Structures can show the parent of a compound that is named as a salt. The whole screen tested about 5,300 compounds, of which about 130 (2.5%) showed an effect of 50% or more. The list shows a part of the results.

The molecules below were run on M. mycetomatis strain mm55. Details: primary screen, metabolic activity vs growth control; 96 h, 2 µM; inhibitor.
`N#Cc1ccc(Cn2cncc2CN2CCN(c3cccc(Cl)c3)C(=O)C2)cc1` [ONC0000972, l778123 hydrochloride] was tested, and the “% viability” value was 78.78%. `Nc1ncnc2nc(-c3ccc(N4CCOCC4)nc3)cc(-c3cccc(Br)c3)c12` [ONC0001326, abt702] was tested, and the “% viability” value was 121.8%. For `C=CCn1c(=O)n([C@@H]2O[C@H](CO)[C@@H](O)[C@H]2O)c2nc(N)[nH]c(=O)c21` [ONC0005331, rwj21757], the “% viability” value was 124.9%. In the case of `C[C@]12C=CC(=O)C=C1CC[C@@H]1[C@@H]2C(=O)C[C@@]2(C)[C@H]1CC[C@]2(O)C(=O)CO` [ONC0000521, prednisone], the “% viability” value is reported as 76.96%. With `COc1cc(NC(=O)c2ccc(-c3ccc(Cl)cc3)o2)cc(OC)c1` [ONC0004499, a803467] the “% viability” value was 65.53%. In the case of `CCOC(=O)CCC(=O)O[C@H]1[C@H](O[C@@H]2[C@@H](C)[C@H](O[C@H]3C[C@@](C)(OC)[C@@H](O)[C@H](C)O3)[C@@H](C)C(=O)O[C@H](CC)[C@@](C)(O)[C@H](O)[C@@H](C)C(=O)[C@H](C)C[C@@]2(C)O)O[C@H](C)C[C@@H]1N(C)C` [ONC0000705, erythromycin ethylsuccinate], the “% viability” value is reported as 80.07%. For `CC(=O)OC[C@H]1O[C@@H](n2ccc(=O)[nH]c2=O)[C@H](OC(C)=O)[C@@H]1OC(C)=O` [ONC0003688, 235trioacetyluridine], the “% viability” value was 61.4%. `Cc1cc(NC(=O)C2C(=O)c3ccccc3S(=O)(=O)N2C)no1` (stereo not drawn) [ONC0002885, isoxicam] was tested, and the “% viability” value was 123.7%. For `COc1cc2nccc(Oc3ccc(NC(=O)Nc4ccc(F)cc4F)c(F)c3)c2cc1OC` [ONC0003524, ki8751], the “% viability” value was 129%. `C#CC1(OCC(O)CN2CCN(c3cccc(C(F)(F)F)c3)CC2)CCCCC1` (stereo not drawn) [ONC0002373, terciprazine] was tested, and the “% viability” value was 68.7%. In the case of `CNC(=O)c1ccc2c(c1)CCO[C@H]2CCN1CCN(c2ccc(C(N)=O)cc2)CC1` [ONC0003033, pnu142633], the “% viability” value is reported as 68.66%. `CN1CCN(C2=Nc3ccccc3Sc3ccc(Cl)cc32)CC1` [ONC0005479, clothiapine] was tested, and the “% viability” value was 75.75%. `CC(CC(C(N)=O)(c1ccccc1)c1ccccc1)N(C)C` (stereo not drawn) [ONC0004171, aminopentamide] was tested, and the “% viability” value was 131.7%. `CC(C)(F)C[C@H](N[C@@H](c1ccc(-c2ccc(S(C)(=O)=O)cc2)cc1)C(F)(F)F)C(=O)NC1(C#N)CC1` [ONC0004613, odanacatib mk 0822] was tested, and the “% viability” value was 90.81%. In the case of `COc1cc(-n2c(S)nc3ccccc3c2=O)c(Cl)cc1Cl` [ONC0004315, mdivi1], the “% viability” value is reported as 127.2%. In the case of `COc1cc(C)c(/C=C/C(C)=C/C=C/C(C)=C/C(=O)O)c(C)c1C` [ONC0004851, acitretin], the “% viability” value is reported as 180.9%. `CCCCCCCCCCCCCCCCCC(=O)OCC(O)CO` (stereo not drawn) [ONC0002777, monostearin] was tested, and the “% viability” value was 78.83%. With `CCCCCCCCCCCCCCC[C@@H](O)[C@@H](N)CO` [ONC0003442, dihydrosphingosine derythro] the “% viability” value was 75.68%. With `OB1OCc2cc(Cl)ccc21` [ONC0003781, an2718] the “% viability” value was 116%. For `CCN1C(=O)CNc2ncc(-c3ccc(-c4nc[nH]n4)nc3C)nc21` [ONC0001188, cc115], the “% viability” value was 73.45%. For `O=C(Nc1ccc2[nH]ccc2c1)c1ccccc1` [ONC0001160, oac2], the “% viability” value was 142.5%. For `Nc1ccc(C(=O)Oc2ccccc2)c(O)c1` [ONC0003304, phenyl aminosalicylate], the “% viability” value was 56.4%. `CNNCc1ccc(C(=O)NC(C)C)cc1` [ONC0004216, procarbazine hydrochloride] was tested, and the “% viability” value was 81.22%. For `C/C(=N\NC(=S)N1CCC1)c1ccccn1` [nsc319726], the “% viability” value was 6.057%. `O=c1[nH]c(=O)n([C@H]2C[C@H](O)[C@@H](CO)O2)cc1F` [ONC0002845, floxuridine] was tested, and the “% viability” value was 24.01%. With `NCCCCN(Cc1nc2ccccc2[nH]1)[C@H]1CCCc2cccnc21` [ONC0002033, mavorixafor trihydrochloride] the “% viability” value was 63.73%. With `O=C1c2cccc(O)c2C(=O)c2c(O)cc(CO)cc21` [ONC0005000, aloeemodin] the “% viability” value was 68.32%. In the case of `CN(C)CCC=C1c2ccccc2C=Cc2ccccc21` [ONC0003091, cyclobenzaprine hydrochloride], the “% viability” value is reported as 81.71%. `CN(C)CCc1c[nH]c2ccc(C[C@H]3COC(=O)N3)cc12` [ONC0004042, zolmitriptan] was tested, and the “% viability” value was 92.03%. In the case of `CCCCCCCCCCCCCCCC(=O)OC[C@H](O)[C@H]1OC(=O)C(=O)C1O` (stereo partly drawn) [ONC0004072, ascorbyl palmitate], the “% viability” value is reported as 135.5%. For `COc1ccc(-c2noc(CC(=O)O)c2-c2ccc(OC)cc2)cc1` [ONC0005478, mofezolac], the “% viability” value was 125.7%. In the case of `CC(=O)N[C@@H](CSSC[C@H](NC(C)=O)C(=O)O)C(=O)O` [ONC0002807, nnü¾Œ“ ¼ü¾˜³ ¼diacetyllcystine], the “% viability” value is reported as 85.92%. In the case of `O=C(NC1CCOCC1)c1ccc(-c2cc(-c3c[nH]nc3-c3ccccn3)ccn2)cc1` [ONC0005212, gw788388], the “% viability” value is reported as 130.8%. With `O=C1C(=O)N(Cc2ccc(Cl)c(Cl)c2)c2ccccc21` [ONC0000172, apoptosisactivatorii] the “% viability” value was 78.29%. In the case of `NS(=O)(=O)c1cc2c(cc1Cl)NCNS2(=O)=O` [ONC0000531, hydrochlorothiazide], the “% viability” value is reported as 101.6%. `C[N+]1(C)CCC(=C(c2ccccc2)c2ccccc2)CC1` [ONC0004508, diphemanil methylsulfate] was tested, and the “% viability” value was 48.99%. With `COc1cc(/C=C/C(=O)O)ccc1O` [ONC0001205, ferulic acid sodium] the “% viability” value was 134.4%. With `COc1ccc(CC2NCCc3c2[nH]c2ccc(C)cc32)c(Cl)c1OC` (stereo not drawn) [ONC0001515, ly266097] the “% viability” value was 113.6%. In the case of `CCC(=O)O[C@H]1[C@H](O[C@@H]2[C@@H](C)[C@H](O[C@H]3C[C@@](C)(OC)[C@@H](O)[C@H](C)O3)[C@@H](C)C(=O)O[C@H](CC)[C@@](C)(O)[C@H](O)[C@@H](C)C(=O)[C@H](C)C[C@@]2(C)O)O[C@H](C)C[C@@H]1N(C)C` [ONC0000644, erythromycin estolate], the “% viability” value is reported as 91.16%.
